Test results published in patent publication US12090189B2, “Polypeptide inhibitor of de novo lipogenesis in cancer cells” (University of Florida Research Foundation, Inc., priority 2018, dated 2024).
At least one peptide structure holds a part that was inferred or is arguable (an end, a ring closure or a residue). Ends that are not written are not given here.

System: 4T1 tumor
Assay: Syngeneic 4T1 mouse mammary tumor treatment study
Type: in vivo, female BALB/c mice
Conditions: 25 mg/kg i.p. daily weekdays, immunocompetent BALB/c mice

DPEEIIVLSDSD [SIM2, DPEEIIVLSDSD]
4T1 tumor growth: highly potent to inhibit the 4T1 tumor growth
